Data taken from the supplement of paper PMC12823440, “Inhibitors supercharge kinase turnover through native proteolytic circuits” (Nature, 2025).
Counter-ions that a name gives are not always drawn. This is one part of the list. Hit calls seldom repeat between salt and free forms of one compound.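 Kinases, fused to nanoluciferase, were expressed in K562 cells; luminescence was measured every 4 h from 2 to 18 h as percent of control (DMSO = 100%, positive control = 0%). A time point is decreased if signal falls significantly (2 sigma). Hits were called by the authors by a rule that is not shown; the count of time points alone does not decide it.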

Amino acid sequences for entries named in this document (tags omitted). A change or cut given only in a name is not applied to a line headed by its entry.
UniProt O75460: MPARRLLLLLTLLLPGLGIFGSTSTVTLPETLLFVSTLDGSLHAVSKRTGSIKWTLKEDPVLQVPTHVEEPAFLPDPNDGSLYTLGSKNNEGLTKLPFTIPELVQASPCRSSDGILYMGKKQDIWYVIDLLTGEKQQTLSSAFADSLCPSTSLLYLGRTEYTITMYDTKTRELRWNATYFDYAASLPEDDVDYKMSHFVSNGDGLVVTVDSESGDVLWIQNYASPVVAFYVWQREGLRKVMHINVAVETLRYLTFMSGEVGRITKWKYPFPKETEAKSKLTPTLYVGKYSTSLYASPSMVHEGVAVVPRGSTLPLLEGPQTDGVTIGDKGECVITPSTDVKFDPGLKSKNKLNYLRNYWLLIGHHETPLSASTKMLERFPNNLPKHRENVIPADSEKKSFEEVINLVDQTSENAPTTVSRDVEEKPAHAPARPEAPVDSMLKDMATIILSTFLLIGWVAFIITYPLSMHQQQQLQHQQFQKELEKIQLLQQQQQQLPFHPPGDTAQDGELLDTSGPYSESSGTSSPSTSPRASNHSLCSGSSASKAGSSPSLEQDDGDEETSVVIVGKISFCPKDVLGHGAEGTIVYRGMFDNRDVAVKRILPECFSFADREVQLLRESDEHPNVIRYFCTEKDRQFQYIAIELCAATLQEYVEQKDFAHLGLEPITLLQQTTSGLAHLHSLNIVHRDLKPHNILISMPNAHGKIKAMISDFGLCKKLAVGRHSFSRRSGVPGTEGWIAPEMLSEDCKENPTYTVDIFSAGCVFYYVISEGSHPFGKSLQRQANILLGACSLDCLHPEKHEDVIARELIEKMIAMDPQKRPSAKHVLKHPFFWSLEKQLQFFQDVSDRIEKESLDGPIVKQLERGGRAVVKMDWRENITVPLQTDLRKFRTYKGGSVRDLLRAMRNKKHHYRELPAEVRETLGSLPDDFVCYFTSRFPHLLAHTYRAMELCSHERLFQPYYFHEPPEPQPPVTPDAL
UniProt P21802, whole entry, looked up: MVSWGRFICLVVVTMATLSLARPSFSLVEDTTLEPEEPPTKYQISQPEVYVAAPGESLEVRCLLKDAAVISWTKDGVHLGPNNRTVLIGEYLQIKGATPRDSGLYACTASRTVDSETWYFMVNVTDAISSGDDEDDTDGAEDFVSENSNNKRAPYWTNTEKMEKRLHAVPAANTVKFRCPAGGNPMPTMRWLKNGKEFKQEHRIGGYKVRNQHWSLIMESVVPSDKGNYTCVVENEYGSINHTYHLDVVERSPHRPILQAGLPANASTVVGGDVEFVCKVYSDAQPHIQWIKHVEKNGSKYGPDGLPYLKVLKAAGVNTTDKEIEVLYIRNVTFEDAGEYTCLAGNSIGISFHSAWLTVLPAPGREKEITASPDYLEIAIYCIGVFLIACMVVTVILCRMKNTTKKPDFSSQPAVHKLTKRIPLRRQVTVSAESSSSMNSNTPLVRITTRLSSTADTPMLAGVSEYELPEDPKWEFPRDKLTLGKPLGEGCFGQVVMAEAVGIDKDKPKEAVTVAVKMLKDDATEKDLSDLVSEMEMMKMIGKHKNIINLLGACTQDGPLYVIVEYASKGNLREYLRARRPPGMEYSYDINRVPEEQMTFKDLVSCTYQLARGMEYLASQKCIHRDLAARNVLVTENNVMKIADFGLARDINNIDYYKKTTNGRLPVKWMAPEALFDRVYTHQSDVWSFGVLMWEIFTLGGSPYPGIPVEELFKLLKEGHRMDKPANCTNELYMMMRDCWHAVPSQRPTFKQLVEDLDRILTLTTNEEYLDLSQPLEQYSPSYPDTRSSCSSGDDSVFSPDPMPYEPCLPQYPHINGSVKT
UniProt P22607, whole entry, looked up: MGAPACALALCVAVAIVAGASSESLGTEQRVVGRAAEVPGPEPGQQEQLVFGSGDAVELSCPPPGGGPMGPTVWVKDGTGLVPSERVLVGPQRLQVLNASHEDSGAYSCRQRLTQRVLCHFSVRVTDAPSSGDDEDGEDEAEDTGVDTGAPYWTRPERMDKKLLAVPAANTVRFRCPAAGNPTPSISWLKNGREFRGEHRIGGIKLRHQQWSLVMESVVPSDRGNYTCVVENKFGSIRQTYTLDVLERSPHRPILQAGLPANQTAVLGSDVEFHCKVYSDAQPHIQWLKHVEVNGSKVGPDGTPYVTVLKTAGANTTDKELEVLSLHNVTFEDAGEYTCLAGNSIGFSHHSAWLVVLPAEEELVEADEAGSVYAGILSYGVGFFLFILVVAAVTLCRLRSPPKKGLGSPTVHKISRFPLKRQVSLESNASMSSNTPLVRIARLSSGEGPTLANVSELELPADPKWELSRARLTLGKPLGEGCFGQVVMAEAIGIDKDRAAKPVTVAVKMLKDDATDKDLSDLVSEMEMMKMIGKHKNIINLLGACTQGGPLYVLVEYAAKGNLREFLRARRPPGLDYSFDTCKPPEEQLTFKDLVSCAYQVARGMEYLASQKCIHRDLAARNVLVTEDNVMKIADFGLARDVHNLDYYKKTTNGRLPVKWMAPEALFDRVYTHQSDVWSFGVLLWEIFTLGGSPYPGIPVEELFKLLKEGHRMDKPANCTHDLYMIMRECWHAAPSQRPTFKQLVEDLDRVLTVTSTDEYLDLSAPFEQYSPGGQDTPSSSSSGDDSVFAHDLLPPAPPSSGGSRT
UniProt P36888, whole entry: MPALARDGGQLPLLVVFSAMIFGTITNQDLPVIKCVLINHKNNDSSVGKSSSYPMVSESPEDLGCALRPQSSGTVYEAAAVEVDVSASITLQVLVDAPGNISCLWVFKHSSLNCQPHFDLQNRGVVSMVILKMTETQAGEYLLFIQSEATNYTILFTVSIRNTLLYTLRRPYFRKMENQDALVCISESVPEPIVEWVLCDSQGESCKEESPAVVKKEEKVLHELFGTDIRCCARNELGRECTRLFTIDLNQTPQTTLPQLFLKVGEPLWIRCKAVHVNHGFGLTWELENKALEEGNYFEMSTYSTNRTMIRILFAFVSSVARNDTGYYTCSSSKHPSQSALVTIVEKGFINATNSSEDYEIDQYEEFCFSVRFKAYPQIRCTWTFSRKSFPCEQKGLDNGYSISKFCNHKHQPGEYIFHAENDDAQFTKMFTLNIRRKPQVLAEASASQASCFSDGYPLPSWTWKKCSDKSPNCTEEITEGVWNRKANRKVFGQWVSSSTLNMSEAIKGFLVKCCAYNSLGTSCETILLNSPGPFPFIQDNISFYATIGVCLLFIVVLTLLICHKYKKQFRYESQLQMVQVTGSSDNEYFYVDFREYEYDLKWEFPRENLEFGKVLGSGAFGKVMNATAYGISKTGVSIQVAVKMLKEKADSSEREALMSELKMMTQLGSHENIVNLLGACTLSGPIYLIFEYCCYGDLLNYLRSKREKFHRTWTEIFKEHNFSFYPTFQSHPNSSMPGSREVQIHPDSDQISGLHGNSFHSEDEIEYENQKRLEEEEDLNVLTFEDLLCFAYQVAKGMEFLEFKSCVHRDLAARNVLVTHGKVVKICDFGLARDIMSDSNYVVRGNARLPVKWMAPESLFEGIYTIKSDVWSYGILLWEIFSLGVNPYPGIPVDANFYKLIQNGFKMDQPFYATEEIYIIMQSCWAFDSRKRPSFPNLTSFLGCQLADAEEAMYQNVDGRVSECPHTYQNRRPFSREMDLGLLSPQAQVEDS
UniProt P06241, whole entry, looked up: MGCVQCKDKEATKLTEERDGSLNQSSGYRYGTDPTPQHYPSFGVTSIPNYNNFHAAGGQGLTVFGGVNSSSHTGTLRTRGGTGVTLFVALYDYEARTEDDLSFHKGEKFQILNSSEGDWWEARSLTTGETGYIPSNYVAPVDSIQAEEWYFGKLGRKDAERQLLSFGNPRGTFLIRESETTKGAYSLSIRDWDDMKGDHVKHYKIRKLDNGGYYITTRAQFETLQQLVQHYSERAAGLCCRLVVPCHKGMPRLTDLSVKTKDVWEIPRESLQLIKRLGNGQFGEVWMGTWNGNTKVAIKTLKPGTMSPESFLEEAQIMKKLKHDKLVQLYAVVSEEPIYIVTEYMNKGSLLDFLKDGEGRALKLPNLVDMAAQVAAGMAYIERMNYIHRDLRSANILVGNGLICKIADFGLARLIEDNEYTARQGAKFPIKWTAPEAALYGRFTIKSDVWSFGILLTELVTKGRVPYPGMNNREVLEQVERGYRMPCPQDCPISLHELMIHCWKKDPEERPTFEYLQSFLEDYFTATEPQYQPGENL
UniProt P49840: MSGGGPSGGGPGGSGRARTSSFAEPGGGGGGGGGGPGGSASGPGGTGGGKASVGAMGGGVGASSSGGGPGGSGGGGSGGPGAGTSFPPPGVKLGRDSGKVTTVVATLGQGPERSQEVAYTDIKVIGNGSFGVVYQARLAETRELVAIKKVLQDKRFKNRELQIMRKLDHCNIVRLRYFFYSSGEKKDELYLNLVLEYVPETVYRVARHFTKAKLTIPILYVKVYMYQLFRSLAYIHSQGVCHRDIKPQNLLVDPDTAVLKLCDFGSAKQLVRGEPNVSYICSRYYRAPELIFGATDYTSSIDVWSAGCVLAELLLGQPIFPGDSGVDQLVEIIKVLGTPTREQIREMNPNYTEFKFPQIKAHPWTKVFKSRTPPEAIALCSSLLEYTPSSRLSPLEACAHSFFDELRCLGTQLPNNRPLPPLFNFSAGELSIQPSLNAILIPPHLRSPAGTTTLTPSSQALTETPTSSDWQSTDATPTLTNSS
UniProt P14616: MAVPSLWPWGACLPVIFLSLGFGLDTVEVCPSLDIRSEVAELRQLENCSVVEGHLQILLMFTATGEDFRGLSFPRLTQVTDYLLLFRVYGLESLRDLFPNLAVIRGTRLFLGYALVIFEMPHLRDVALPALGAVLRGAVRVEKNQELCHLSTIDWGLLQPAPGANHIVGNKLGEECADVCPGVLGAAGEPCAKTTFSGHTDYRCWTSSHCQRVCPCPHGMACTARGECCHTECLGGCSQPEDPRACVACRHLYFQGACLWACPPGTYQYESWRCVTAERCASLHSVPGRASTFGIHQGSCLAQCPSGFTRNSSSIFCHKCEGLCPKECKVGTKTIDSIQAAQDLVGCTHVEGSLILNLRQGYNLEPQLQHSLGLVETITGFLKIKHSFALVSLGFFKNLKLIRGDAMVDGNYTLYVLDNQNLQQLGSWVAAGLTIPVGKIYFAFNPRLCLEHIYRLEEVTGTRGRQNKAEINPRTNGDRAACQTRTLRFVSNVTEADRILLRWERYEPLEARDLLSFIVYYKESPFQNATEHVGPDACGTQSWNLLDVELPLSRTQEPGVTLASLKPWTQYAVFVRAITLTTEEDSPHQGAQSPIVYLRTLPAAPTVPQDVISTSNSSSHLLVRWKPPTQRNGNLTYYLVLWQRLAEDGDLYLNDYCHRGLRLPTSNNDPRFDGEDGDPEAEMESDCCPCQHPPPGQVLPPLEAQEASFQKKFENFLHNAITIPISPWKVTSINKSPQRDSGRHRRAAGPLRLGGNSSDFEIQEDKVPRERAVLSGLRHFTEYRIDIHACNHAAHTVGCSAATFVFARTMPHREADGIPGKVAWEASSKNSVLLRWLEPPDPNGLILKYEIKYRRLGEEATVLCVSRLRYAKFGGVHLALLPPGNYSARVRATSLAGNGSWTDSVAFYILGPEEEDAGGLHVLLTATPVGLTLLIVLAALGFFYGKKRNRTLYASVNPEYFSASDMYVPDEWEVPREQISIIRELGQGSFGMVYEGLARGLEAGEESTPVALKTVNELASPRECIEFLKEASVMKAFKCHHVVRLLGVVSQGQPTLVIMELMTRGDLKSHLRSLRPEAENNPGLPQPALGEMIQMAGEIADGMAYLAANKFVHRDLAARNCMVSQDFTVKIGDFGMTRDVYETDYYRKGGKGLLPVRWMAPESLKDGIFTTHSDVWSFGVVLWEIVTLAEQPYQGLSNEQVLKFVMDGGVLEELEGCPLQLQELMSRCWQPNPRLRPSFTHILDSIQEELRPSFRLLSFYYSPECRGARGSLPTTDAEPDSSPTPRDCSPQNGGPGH

Tests used:
Assay in all cases: kinase-Nluc reporter destabilization hit call (1 = scored as downregulated) (binary); higher = compound decreases kinase abundance
Conditions in all cases: K562; 2-18 h
ERN1 = ERN1 (UniProt O75460)
FGFR1 = FGFR1 (UniProt P11362)
FGFR2 = FGFR2 (UniProt P21802)
FGFR3 = FGFR3 (UniProt P22607)
FGR = FGR (UniProt P09769)
FLT3 = FLT3 (UniProt P36888)
FYN = FYN (UniProt P06241)
GSK3A = GSK3A (UniProt P49840)
HER2 = HER2 (UniProt P04626)
INSRR = INSRR (UniProt P14616)

Measured: kinase-Nluc reporter destabilization hit call

C=C1C(=O)O[C@H]2C[C@H](C)C(/C=C/C(C)=O)=CC[C@H]12 [Xanthatin] (2.5 µM)
inactive: ERN1 = 0 | FGFR1 = 0 | FGFR2 = 0 | FGFR3 = 0 | FGR 0 | FLT3 = 0 | FYN 0 | GSK3A 0 | HER2 = 0 | INSRR 0

Cc1ccccc1-n1c([C@H](C)Nc2nc(N)nc3nc[nH]c23)nc2cccc(C)c2c1=O [CAL-130 (Hydrochloride)] (10 µM)
inactive: ERN1 = 0 | FGFR1 = 0 | FGFR2 = 0 | FGFR3 = 0 | FGR 0 | FLT3 = 0 | FYN 0 | GSK3A 0 | HER2 = 0 | INSRR 0

CN(CC(=O)N(Cc1ccc(C2CCCCC2)cc1)c1ccc(C(=O)NO)cc1)S(=O)(=O)c1c(F)c(F)c(F)c(F)c1F (2.5 µM)
inactive: ERN1 = 0 | FGFR1 = 0 | FGFR2 = 0 | FGFR3 = 0 | FGR 0 | FLT3 = 0 | FYN 0 | GSK3A 0 | HER2 = 0 | INSRR 0

CC(C)(C)c1nc(-c2cccc(NS(=O)(=O)c3c(F)cccc3F)c2F)c(-c2ccnc(N)n2)s1 [Dabrafenib] (2.5 µM)
inactive: ERN1 = 0 | FGFR1 = 0 | FGFR2 = 0 | FGFR3 = 0 | FGR 0 | FLT3 = 0 | FYN 0 | GSK3A 0 | HER2 = 0 | INSRR 0

Nc1ccc(-c2cnc(N)c(-c3ccc(Cl)cc3)c2)cn1 (10 µM)
inactive: ERN1 = 0 | FGFR1 = 0 | FGFR2 = 0 | FGFR3 = 0 | FGR 0 | FLT3 = 0 | FYN 0 | GSK3A 0 | HER2 = 0 | INSRR 0

CCS(=O)(=O)c1ncc(Cl)c(C(=O)N(Cc2ccc(Cl)cc2)Cc2ccco2)n1 (2.5 µM)
inactive: ERN1 = 0 | FGFR1 = 0 | FGFR2 = 0 | FGFR3 = 0 | FGR 0 | FLT3 = 0 | GSK3A 0 | HER2 = 0 | INSRR 0
active: FYN 1

CC#CC(=O)Nc1ccc2ncnc(Nc3cccc(Br)c3)c2c1 (10 µM)
inactive: ERN1 = 0 | FGFR1 = 0 | FGFR2 = 0 | FGFR3 = 0 | FGR 0 | FLT3 = 0 | FYN 0 | GSK3A 0 | HER2 = 0 | INSRR 0

CNC(=O)c1c(F)cccc1Nc1nc(Nc2cc3c(cc2OC)CCN3C(=O)CN(C)C)nc2[nH]ccc12 (10 µM)
inactive: ERN1 = 0 | FGFR1 = 0 | FGFR2 = 0 | FGFR3 = 0 | FGR 0 | FLT3 = 0 | FYN 0 | GSK3A 0 | HER2 = 0 | INSRR 0

3 compounds out of the list, arranged by count of non-hydrogen atoms, low to high.
CCS(=O)(=O)c1ncc(Cl)c(C(=O)N(Cc2ccc(Cl)cc2)Cc2ccco2)n1 (2.5 µM)
inactive: ERN1 = 0 | FGFR1 = 0 | FGFR2 = 0 | FGFR3 = 0 | FGR 0 | FLT3 = 0 | GSK3A 0 | HER2 = 0 | INSRR 0
active: FYN 1

CC(C)(C)c1nc(-c2cccc(NS(=O)(=O)c3c(F)cccc3F)c2F)c(-c2ccnc(N)n2)s1 [Dabrafenib] (2.5 µM)
inactive: ERN1 = 0 | FGFR1 = 0 | FGFR2 = 0 | FGFR3 = 0 | FGR 0 | FLT3 = 0 | FYN 0 | GSK3A 0 | HER2 = 0 | INSRR 0

CNC(=O)c1c(F)cccc1Nc1nc(Nc2cc3c(cc2OC)CCN3C(=O)CN(C)C)nc2[nH]ccc12 (10 µM)
inactive: ERN1 = 0 | FGFR1 = 0 | FGFR2 = 0 | FGFR3 = 0 | FGR 0 | FLT3 = 0 | FYN 0 | GSK3A 0 | HER2 = 0 | INSRR 0

The listing continues.

COc1ccc(OC)c(C2C(C#N)=C(N)Oc3n[nH]c(-c4ccc5ccccc5c4)c32)c1 (stereo not given) (10 µM)
inactive: ERN1 = 0 | FGFR1 = 0 | FGFR2 = 0 | FGFR3 = 0 | FGR 0 | FLT3 = 0 | FYN 0 | GSK3A 0 | HER2 = 0 | INSRR 0

Cc1cc(Nc2ncnc3ccc(NC4=NC(C)(C)CO4)cc23)ccc1Oc1ccn2ncnc2c1 [Tucatinib] (2.5 µM)
inactive: ERN1 = 0 | FGFR1 = 0 | FGFR2 = 0 | FGFR3 = 0 | FGR 0 | FLT3 = 0 | FYN 0 | GSK3A 0 | HER2 = 0 | INSRR 0

Cc1ccc(C(=O)Nc2ccc(Oc3cc4cnn(C)c4cc3-c3cn[nH]c3)c(F)c2)c(=O)n1-c1ccc(F)cc1 [Merestinib dihydrochloride] (2.5 µM)
inactive: ERN1 = 0 | FGFR1 = 0 | FGFR2 = 0 | FGFR3 = 0 | FGR 0 | FLT3 = 0 | FYN 0 | GSK3A 0 | HER2 = 0 | INSRR 0

CCS(=O)(=O)Nc1ccc2[nH]c(O)c(C(=Nc3ccc(CN4CCCCC4)cc3)c3ccccc3)c2c1 [Hesperadin] (2.5 µM)
inactive: ERN1 = 0 | FGFR1 = 0 | FGFR2 = 0 | FGFR3 = 0 | FGR 0 | FLT3 = 0 | FYN 0 | GSK3A 0 | HER2 = 0 | INSRR 0

NC(=O)c1nc(Nc2ccccc2)sc1NC(=O)C1CCCCC1 (10 µM)
inactive: ERN1 = 0 | FGFR1 = 0 | FGFR2 = 0 | FGFR3 = 0 | FGR 0 | FLT3 = 0 | FYN 0 | GSK3A 0 | HER2 = 0 | INSRR 0

Nc1cc(C(F)(F)F)c(-c2cc(N3CCOCC3)nc(N3CCOCC3)n2)cn1 [Buparlisib (Hydrochloride)] (2.5 µM)
inactive: ERN1 = 0 | FGFR1 = 0 | FGFR2 = 0 | FGFR3 = 0 | FGR 0 | FLT3 = 0 | FYN 0 | GSK3A 0 | HER2 = 0 | INSRR 0

Cc1c(NC(=O)c2cccn(-c3ccc(F)cc3)c2=O)ccc(Oc2ccnc(NC(=O)C3CC3)c2)c1C (2 µM)
inactive: ERN1 = 0 | FGFR1 = 0 | FGFR2 = 0 | FGFR3 = 0 | FGR 0 | FLT3 = 0 | FYN 0 | GSK3A 0 | HER2 = 0 | INSRR 0

c1cncc(CN2CCC(n3ncc4c(N5CCOCC5)nc(-c5ccc6[nH]ccc6c5)nc43)CC2)c1 (10 µM)
inactive: ERN1 = 0 | FGFR2 = 0 | FGFR3 = 0 | FGR 0 | FLT3 = 0 | FYN 0 | GSK3A 0 | HER2 = 0 | INSRR 0
active: FGFR1 = 1

CCN1CCN(Cc2ccc(Nc3ncc(F)c(-c4cc(F)c5nc(C)n(C(C)C)c5c4)n3)nc2)CC1 [Abemaciclib (methanesulfonate)] (10 µM)
inactive: ERN1 = 0 | FGFR1 = 0 | FGFR2 = 0 | FGFR3 = 0 | FGR 0 | FLT3 = 0 | FYN 0 | GSK3A 0 | HER2 = 0 | INSRR 0

CCOc1ccc2cc(-c3nn(CC4CCN(C)CC4)c4ncnc(N)c34)ccc2n1 (10 µM)
inactive: ERN1 = 0 | FGFR1 = 0 | FGFR2 = 0 | FGFR3 = 0 | FGR 0 | FLT3 = 0 | FYN 0 | GSK3A 0 | HER2 = 0 | INSRR 0

Cc1ccc2nc(NCCN)c3ncc(C)n3c2c1 (2.5 µM)
inactive: ERN1 = 0 | FGFR1 = 0 | FGFR2 = 0 | FGFR3 = 0 | FGR 0 | FLT3 = 0 | FYN 0 | GSK3A 0 | HER2 = 0 | INSRR 0

O=C1NC(=O)/C(=C\c2cccc(C(F)(F)F)c2)S1 (2.5 µM)
inactive: ERN1 = 0 | FGFR1 = 0 | FGFR2 = 0 | FGFR3 = 0 | FGR 0 | FLT3 = 0 | FYN 0 | GSK3A 0 | HER2 = 0 | INSRR 0

Cc1ccc2cc(-c3c(C)ccc(C(=O)c4c(-c5ccccc5)n(C)n(-c5ccccc5)c4=O)c3N)ccc2n1 (2.5 µM)
inactive: ERN1 = 0 | FGFR1 = 0 | FGFR2 = 0 | FGFR3 = 0 | FGR 0 | FLT3 = 0 | FYN 0 | GSK3A 0 | HER2 = 0 | INSRR 0

C=CC(=O)Nc1ccc(CN2C(=O)N(c3cc(OC)cc(OC)c3)Cc3cnc(Nc4ccc(N5CCN(C)CC5)cc4)nc32)cc1 (2.5 µM)
inactive: ERN1 = 0 | FGFR1 = 0 | FGFR2 = 0 | FGFR3 = 0 | FGR 0 | FLT3 = 0 | FYN 0 | GSK3A 0 | INSRR 0
active: HER2 = 1

Cn1ncc(Cl)c1-c1cc(C(=O)N[C@H](CN)Cc2ccc(F)c(F)c2)oc1Cl [Uprosertib] (10 µM)
inactive: ERN1 = 0 | FGFR1 = 0 | FGFR2 = 0 | FGFR3 = 0 | FGR 0 | FLT3 = 0 | FYN 0 | GSK3A 0 | HER2 = 0 | INSRR 0

OCCn1cc(-c2ccc3c(c2)CC/C3=N\O)c(-c2ccncc2)n1 (10 µM)
inactive: ERN1 = 0 | FGFR1 = 0 | FGFR2 = 0 | FGFR3 = 0 | FGR 0 | FLT3 = 0 | FYN 0 | GSK3A 0 | HER2 = 0 | INSRR 0

Cc1cc(CN2CCN(c3c(Br)cnc4nc(-c5ccc(N6CCN(C)CC6)cc5)[nH]c34)CC2)no1 (2.5 µM)
inactive: ERN1 = 0 | FGFR1 = 0 | FGFR2 = 0 | FGFR3 = 0 | FGR 0 | FLT3 = 0 | FYN 0 | GSK3A 0 | HER2 = 0 | INSRR 0

Cn1cnc2c(F)c(Nc3ccc(Br)cc3Cl)c(C(=O)NOCCO)cc21 [Selumetinib (sulfate)] (10 µM)
inactive: ERN1 = 0 | FGFR1 = 0 | FGFR2 = 0 | FGFR3 = 0 | FGR 0 | FLT3 = 0 | FYN 0 | GSK3A 0 | HER2 = 0 | INSRR 0

C[C@@H]1COCCN1c1cc(C2([S@@](C)(=N)=O)CC2)nc(-c2ccnc3[nH]ccc23)n1 [(S)-Ceralasertib] (10 µM)
inactive: ERN1 = 0 | FGFR1 = 0 | FGFR2 = 0 | FGFR3 = 0 | FGR 0 | FLT3 = 0 | FYN 0 | GSK3A 0 | HER2 = 0 | INSRR 0
